# Data reported in patent US20230287071A1.
# Biological target: HLA-B*44:05 (human)
# Test: UV peptide-exchange ELISA, yield grade
row,binding,Binder
1,binds,REAEEKEAQL [… (SEQ ID NO: 218)]
2,binds,MELQVSSGF [… (SEQ ID NO: 240)]
3,binds,AEFVPKADLL [… (SEQ ID NO: 188)]
4,binds,SEDTIHTHL [… (SEQ ID NO: 222)]
5,binds,EEIFAHLGL [… (SEQ ID NO: 186)]
6,binds,AEDLEKKYA [… (SEQ ID NO: 229)]
7,binds,SEHSLEGQKF [… (SEQ ID NO: 173)]
8,binds,LEYEAPKLY [… (SEQ ID NO: 228)]
9,binds,KELSVFKKF [… (SEQ ID NO: 200)]
10,binds,AEALVDGKWQEF [… (SEQ ID NO: 231)]
11,binds,MEVDPIGHLYIF [… (SEQ ID NO: 9)]
12,binds,RELRPLFDRQW [… (SEQ ID NO: 193)]
13,binds,VEAQDRETW [… (SEQ ID NO: 13)]
14,binds,EEEVFSGMKL [… (SEQ ID NO: 220)]
15,binds,AEDNMVTSY [… (SEQ ID NO: 226)]
16,binds,MEILWKTLT [… (SEQ ID NO: 201)]
17,binds,VEQINISQDW [… (SEQ ID NO: 243)]
18,binds,MEIKGTVTEF [… (SEQ ID NO: 195)]
19,binds,YERPTLVEL [… (SEQ ID NO: 204)]
20,binds,REEEANVVL [… (SEQ ID NO: 198)]
21,binds,DENDAGNLITF [… (SEQ ID NO: 174)]
22,binds,TELEVKIRDW [… (SEQ ID NO: 196)]
23,binds,AEGEPPPAL [… (SEQ ID NO: 209)]
24,binds,TETDIDREY [… (SEQ ID NO: 224)]
25,binds,AEHDMKSVL [… (SEQ ID NO: 191)]
26,binds,TEGDVLNYIF [… (SEQ ID NO: 194)]

row,binding,Binder
1,binds,SVNPIIYGF [… (SEQ ID NO: 214)]
2,binds,YEIRAEAL [YEIRAEAL (SEQ ID NO: 232)]
3,binds,EMPGGPVW [EMPGGPVW (SEQ ID NO: 14)]
4,binds,SEVEGLAFV [… (SEQ ID NO: 223)]
5,binds,EVEVGDRTDW [… (SEQ ID NO: 217)]
6,binds,SESLPRAPL [… (SEQ ID NO: 235)]
7,binds,KEVDPTGHSF [… (SEQ ID NO: 12)]
8,binds,LEIMTNLVTL [… (SEQ ID NO: 192)]
9,binds,TEQALRLSV [… (SEQ ID NO: 187)]
10,binds,AGSPVMRKW [… (SEQ ID NO: 216)]
11,binds,SEFLLRIF [SEFLLRIF (SEQ ID NO: 208)]
12,binds,RELPLVLLA [… (SEQ ID NO: 202)]
13,binds,AEGEPPPALAW [… (SEQ ID NO: 210)]
14,binds,MEFQGPMPAGM [… (SEQ ID NO: 245)]
15,binds,MEGAALLKIF [… (SEQ ID NO: 178)]
16,binds,CDAQIQYSY [… (SEQ ID NO: 242)]
17,binds,WEVEVGDRTDW [… (SEQ ID NO: 219)]
18,binds,SEDPEKYYL [… (SEQ ID NO: 206)]
19,binds,NEAGEVSKHF [… (SEQ ID NO: 190)]
20,binds,TEANVQALF [… (SEQ ID NO: 185)]
21,binds,EEQLLQKVM [… (SEQ ID NO: 184)]
22,binds,QELLDIANYL [… (SEQ ID NO: 241)]
23,binds,RENPGMFSW [… (SEQ ID NO: 172)]
24,binds,EEHSSKLQTSL [… (SEQ ID NO: 180)]
25,binds,SEASVYLFRF [… (SEQ ID NO: 212)]
26,binds,QEIGQKTSV [… (SEQ ID NO: 237)]

row,binding,Binder
1,binds,LEGGGRGGEF [… (SEQ ID NO: 207)]
2,binds,TEEPQRLFY [… (SEQ ID NO: 234)]
3,binds,VESSQAFTW [… (SEQ ID NO: 244)]
4,binds,AELPENLKALF [… (SEQ ID NO: 199)]
5,binds,SEYPTKNYV [… (SEQ ID NO: 10)]
6,binds,VEDDNYKLSL [… (SEQ ID NO: 238)]
7,binds,DEDLFHKL [DEDLFHKL (SEQ ID NO: 213)]
8,binds,LEEPMPFFY [… (SEQ ID NO: 177)]
9,binds,EEHIFSAF [EEHIFSAF (SEQ ID NO: 179)]
10,binds,HEVAQDDHL [… (SEQ ID NO: 181)]
11,binds,LEDQLKPMLEW [… (SEQ ID NO: 236)]
12,binds,NEILTIHF [NEILTIHF (SEQ ID NO: 197)]
13,binds,EELHAALSEW [… (SEQ ID NO: 182)]
14,binds,ALNGDIYVW [… (SEQ ID NO: 189)]
15,binds,EENIVAIGI [… (SEQ ID NO: 11)]
16,binds,REILHAQTL [… (SEQ ID NO: 203)]
17,binds,DEDYTYLIL [… (SEQ ID NO: 239)]
18,binds,QEDKATQTL [… (SEQ ID NO: 233)]
19,binds,AEALVDGKW [… (SEQ ID NO: 230)]
20,binds,MEAELVRRI [… (SEQ ID NO: 15)]
21,binds,MEIEGAGNFL [… (SEQ ID NO: 205)]
22,binds,LEMLDAHRL [… (SEQ ID NO: 211)]
23,binds,KEMQVTISQQL [… (SEQ ID NO: 183)]
24,binds,GETQQHIQL [… (SEQ ID NO: 176)]

# No constants are given. Whether binding was seen depends on the method and setting. Binding can be weak; no strength is given.
